For one substance, binding results are on record in paper PMC9576728.

Amino acid sequences for entries named in this document (tags omitted). A change or cut given only in a name is not applied to a line headed by its entry.
UniProt A8K830: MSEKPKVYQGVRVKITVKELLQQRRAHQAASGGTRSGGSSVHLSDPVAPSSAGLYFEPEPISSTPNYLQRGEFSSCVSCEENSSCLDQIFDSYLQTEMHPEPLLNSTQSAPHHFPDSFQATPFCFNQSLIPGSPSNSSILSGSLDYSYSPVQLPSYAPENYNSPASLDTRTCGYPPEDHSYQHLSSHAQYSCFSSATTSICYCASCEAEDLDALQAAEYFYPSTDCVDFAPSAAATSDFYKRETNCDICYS

No constants are given. Whether binding was seen depends on the method and setting. In cells and extracts the contact can be indirect. Binding calls can cover weak binding; strength is not graded here. For some assays here: Where a sequence is shown, tags or fusion partners need not be part of it.

One experiment addresses T1, POU2F3 (UniProt Q9UKI9).
T1 sequence: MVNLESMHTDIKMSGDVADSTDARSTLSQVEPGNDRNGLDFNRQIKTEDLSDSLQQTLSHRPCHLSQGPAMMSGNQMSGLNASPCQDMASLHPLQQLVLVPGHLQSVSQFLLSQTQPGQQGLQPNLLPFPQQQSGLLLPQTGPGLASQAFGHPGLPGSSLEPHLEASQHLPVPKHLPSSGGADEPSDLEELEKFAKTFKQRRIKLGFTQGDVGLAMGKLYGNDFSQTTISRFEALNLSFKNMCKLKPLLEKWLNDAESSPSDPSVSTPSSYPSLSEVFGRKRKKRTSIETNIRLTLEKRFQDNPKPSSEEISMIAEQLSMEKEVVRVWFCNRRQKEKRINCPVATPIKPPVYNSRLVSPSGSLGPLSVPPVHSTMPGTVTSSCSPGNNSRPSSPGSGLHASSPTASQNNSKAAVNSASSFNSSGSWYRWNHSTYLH
Nature of the experiment: co-IP; immunoprecipitation-western blot of HEK293T cells expressing HA-COLCA2 (WT or DAAPP mutant) and POU2F3 (Fig. 1g); which protein was precipitated is not told.

A further experiment has as its target T2, FLAG-POU2F3 (UniProt Q9UKI9).
T2 sequence: T1 sequence
In words: co-IP; immunoprecipitation-western blot of HEK293T cells expressing FLAG-POU2F3 and HA-COLCA2-WT/DAAPP (Fig. 1h); which protein was precipitated is not told. (A western blot detects proteins with antibodies after separation by electrophoresis.)

As for “HA-COLCA2 mutant where VKELL in the motif is mutated to DAAPP (from UniProt A8K830)”, the binding entry with POU2F3 and in the experiment with FLAG-POU2F3 was “binds” in each case.
